Data: patent US20250368742A1
Results are given in words; binding and its absence hold for the method and conditions named. Some binding calls cover weakened binding; strength is not graded here. Tags and fused reporters may be left off the sequences shown. Values belong to the binder of their own block, whether it stands above or below them.

Protein sequences, listed by entry. Tags and fused reporters are not part of them. Residues count along the entry.
UniProt P26718, residues 78-216: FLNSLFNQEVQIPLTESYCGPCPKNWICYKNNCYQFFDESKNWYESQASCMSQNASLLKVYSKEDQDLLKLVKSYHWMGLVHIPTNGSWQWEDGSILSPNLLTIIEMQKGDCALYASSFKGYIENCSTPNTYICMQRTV

Experiments:
NKG2D-His [1] = molecular target: NKG2D-His (UniProt P26718); assay: ELISA, NKG2D-His coated, titrated MICA/B-ECD, detection with 1D5
NKG2D-His [2] = molecular target: NKG2D-His (UniProt P26718); assay: ELISA: NKG2D-His coated, MICA/B-ECD titrated, detection 1D5 + anti-hFc-HRP

binding (NKG2D-His [1]): binds
binding (NKG2D-His [2]): binds
B1: MICB005-ECD-HISAvi (ligand)
chain: EPHSLRYNLMVLSQDGSVQSGFLAEGHLDGQPFLRYDRQKRRAKPQGQWAEDVLGAKTWDTETEDLTENGQDLRRTLTHIKDQKGGLHSLQEIRVCEIHEDSSTRGSRHFYYDGELFLSQNLETQESTVPQSSRAQTLAMNVTNFWKEDAMKTKTHYRAMQADCLQKLQRYLKSGVAIRRTVPPMVNVTCSEVSEGNITVTCRASSFYPRNITLTWRQDGVSLSHNTQQWGDVLPDGNGTYQTWVATRIRQGEEQRFTCYMEHSGNHGTHPVPSGKALVLQSQRTDHHHHHHGLNDIFEAQKIEWHE

binding (NKG2D-His [2]): binds
B2: MICA002-ECD-HISAvi (ligand)
chain: EPHSLRYNLTVLSGDGSVQSGFLAEVHLDGQPFLRCDRQKCRAKPQGQWAEDVLGNKTWDRETRDLTGNGKDLRMTLAHIKDQKEGLHSLQEIRVCEIHEDNSTRSSQHFYYDGELFLSQNLETEEWTMPQSSRAQTLAMNVRNFLKEDAMKTKTHYHAMHADCLQELRRYLKSGVVLRRTVPPMVNVTRSEASEGNITVTCRASGFYPWNITLSWRQDGVSLSHDTQQWGDVLPDGNGTYQTWVATRICQGEEQRFTCYMEHSGNHSTHPVPSGKVLVLQSHWQHHHHHHGLNDIFEAQKIEWHE
